Results from publication doi:10.1101/390062.
No constants are given. Whether binding was seen depends on the method and setting. Binding seen in cells or lysates may run through a third protein. Some results given as binding are weak or reduced against the parent protein; the word gives no strength. Sequences can lack the tags named with a protein.

T1: GST-Vam7 (S. cerevisiae) (UniProt P32912)
T1 sequence: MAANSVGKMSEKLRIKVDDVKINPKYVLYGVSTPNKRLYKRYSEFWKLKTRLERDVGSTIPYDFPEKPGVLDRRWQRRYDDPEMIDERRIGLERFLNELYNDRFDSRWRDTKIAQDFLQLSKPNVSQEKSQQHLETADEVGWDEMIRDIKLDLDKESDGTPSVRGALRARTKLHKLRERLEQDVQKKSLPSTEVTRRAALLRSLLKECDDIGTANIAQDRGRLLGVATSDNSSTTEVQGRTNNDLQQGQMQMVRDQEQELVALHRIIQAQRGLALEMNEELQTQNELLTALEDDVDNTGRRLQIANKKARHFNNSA


Target: T1, GST-Vam7 (S. cerevisiae)
Assay: pull-down

binding	Binder
binds	Nyv1 (protein, UniProt Q12255 1-253) MKRFNVSYVEVIKNGETISSCFQPFQKNENYGTITSANEQITPVIFHNLIMDMVLPKVVPIKGNKVTKMSMNLIDGFDCFYSTDDHDPKTVYVCFTLVDMPKILPIRILSGLQEYESNATNELLSSHVGQILDSFHEELVEYRNQTLNSSGNGQSSNGNGQNTISDIGDATEDQIKDVIQIMNDNIDKFLERQERVSLLVDKTSQLNSSSNKFRRKAVNIKEIMWWQKVKNITLLTFTIILFVSAAFMFFYLW
binds	Vam3 (protein, UniProt Q12241 1-283) MSFFDIEAQSSKGNSQQEPQFSTNQKTKELSNLIETFAEQSRVLEKECTKIGSKRDSKELRYKIETELIPNCTSVRDKIESNILIHQNGKLSADFKNLKTKYQSLQQSYNQRKSLFPLKTPISPGTSKERKDIHPRTEAVRQDPESSYISIKVNEQSPLLHNEGQHQLQLQEEQEQQQQGLSQEELDFQTIIHQERSQQIGRIHTAVQEVNAIFHQLGSLVKEQGEQVTTIDENISHLHDNMQNANKQLTRADQHQRDRNKCGKVTLIIIIVVCMVVLLAVLS
